# Results from one PubChem assay

Data taken from PubChem BioAssay AID1963991, deposited by NCATS (2024).

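CellTiter-Glo luminescence measures how many UOK109 TFE3-RCC cells stay viable after two days of treatment. Each compound was run as a concentration series, and the potency comes from that titration. The number is the fitted AC50 for loss of viability; a lower value means a more potent compound. All of these compounds are filed inconclusive. An active call needs an area-under-curve z-score below -0.8 in all three TFE3-fusion lines, and an inactive call needs flat class-4 curves in all three.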

Values are in nM. All entries here are filed as inconclusive. These entries are mostly ones the record files as inconclusive; other results of the assay are not listed here. A potency from a partial, single-point or poor curve is only a rough figure. Some entries filed as inconclusive have a full curve. The first word of each remark tells which way the curve ran; it can be opposite to the aim of the assay. Activity scores are not listed here.

compound,tested on / at,Potency (nM),remark
O=C(O)CCNc1cc(N2CCc3ccccc3CC2)nc(-c2ccccn2)n1,active = Z-AUC below -0.8 in all three lines,29565,"falling, single point"
Fc1ccc(C(OCCN2CCN(CCCc3ccccc3)CC2)c2ccc(F)cc2)cc1,-,23484,"falling, single point"
O=c1[nH]c2ccccc2n1C1CCN(Cc2ccc(-c3[nH]c4cc5ncnc5cc4nc3-c3ccccc3)cc2)CC1,-,16626,"falling, partial curve"
COC1=C[C@@H]2[C@@H]3Cc4ccc(OC)c(O)c4[C@]2(CCN3C)CC1=O,-,18654,"falling, partial curve"
CN[C@@H](C)C(=O)N[C@H]1CCCC[C@H]2CC[C@@H](C(=O)N[C@@H](c3ccccc3)c3cn(CCCCc4ccc(CCCCn5cc([C@@H](NC(=O)[C@@H]6CC[C@@H]7CCCC[C@H](NC(=O)[C@H](C)NC)C(=O)N76)c6ccccc6)nn5)cc4)nn3)N2C1=O,active = Z-AUC below -0.8 in all three lines,1865,"falling, full curve"
Cn1cc(C2=C(c3cn(C4CCN(Cc5ccccn5)CC4)c4ccccc34)C(=O)NC2=O)c2ccccc21,-,3722,"falling, partial curve"
Nc1nc2[nH]cc(CCc3ccc(C(=O)N[C@@H](CCC(=O)O)C(=O)O)cc3)c2c(=O)[nH]1,active = Z-AUC below -0.8 in all three lines,3317,"falling, partial curve, poor fit"
CC(=O)N(C)c1cccc(-c2ccnc3c(C(=O)c4cccs4)cnn23)c1,-,23484,"falling, partial curve, poor fit"
Cc1c(C(=O)Nc2cccc(C(F)(F)F)c2)cc(-c2ccccc2)n1CCCN1CCOCC1,-,20930,"falling, partial curve"
CCOc1ccccc1N=Nc1c(C)[nH]n(-c2nc(-c3ccccc3)cs2)c1=O,active = Z-AUC below -0.8 in all three lines,3722,"falling, partial curve, poor fit"
O=c1cccc2n1CC1CNC[C@H]2C1,-,10490,"falling, partial curve"
CO[C@@]12[C@H](COC(N)=O)C3=C(C(=O)C(C)=C(N)C3=O)N1C[C@@H]1N[C@@H]12,active = Z-AUC below -0.8 in all three lines,11770,"falling, partial curve"
COc1ccc2c(c[n+](C)c3c4cc5c(cc4ccc23)OCO5)c1OC,-,11770,"falling, partial curve"
C[C@](O)(CS(=O)(=O)c1ccc(F)cc1)C(=O)Nc1ccc(C#N)c(C(F)(F)F)c1,-,1321,"falling, full curve"
O=C(Nc1ccc([N+](=O)[O-])cc1Cl)c1cc(Cl)ccc1O,active = Z-AUC below -0.8 in all three lines,2348,"falling, full curve"
CON(C)C(=O)N1N=C(c2cc(F)ccc2F)S[C@]1(CCCN)c1ccccc1,active = Z-AUC below -0.8 in all three lines,132.1,-
O=C(O)c1ccc(Nc2ncc3c(n2)-c2ccc(Cl)cc2C(c2c(F)cccc2F)=NC3)cc1,active = Z-AUC below -0.8 in all three lines,18654,"falling, partial curve"
CCC(C)SSc1ncc[nH]1 (stereo unspecified),active = Z-AUC below -0.8 in all three lines,37221,single point

For reference, 2 entries once more:

compound	tested on / at	Potency (nM)	remark
O=C(O)CCNc1cc(N2CCc3ccccc3CC2)nc(-c2ccccn2)n1	active = Z-AUC below -0.8 in all three lines	29565	falling, single point
CO[C@@]12[C@H](COC(N)=O)C3=C(C(=O)C(C)=C(N)C3=O)N1C[C@@H]1N[C@@H]12	active = Z-AUC below -0.8 in all three lines	11770	falling, partial curve